The labels stand for the following.
B1: 62T, 72A (protein, listed as Rattus norvegicus)
chain: AFDGTWKVDRNENYEKFMEKMGINVVKRKLGAHDNLKLTITQEGNKFTVKESSNFRNIDVVTELGVDFAYSAADGTELTGTWTMEGNKLVGKFKRVDNGKELIAVREISGNELIQTYTYEGVEAKRIFKKE
modifications: PEPTIDE (1)...(131) wild-type rat intestinal fatty acid binding protein
B2: 68C, 72A (protein, listed as Rattus norvegicus)
chain: B1 chain with T62F, F68C
modifications: PEPTIDE (1)...(131) wild-type rat intestinal fatty acid binding protein
B3: 72Y (protein, listed as Rattus norvegicus)
chain: B1 chain with T62F, A72Y
modifications: PEPTIDE (1)...(131) wild-type rat intestinal fatty acid binding protein
B4: 72S (protein, listed as Rattus norvegicus)
chain: B1 chain with T62F, A72S
modifications: PEPTIDE (1)...(131) wild-type rat intestinal fatty acid binding protein
B5: 68A, 72A (protein, listed as Rattus norvegicus)
chain: B1 chain with T62F, F68A
modifications: PEPTIDE (1)...(131) wild-type rat intestinal fatty acid binding protein
B6: 72F (protein, listed as Rattus norvegicus)
chain: B1 chain with T62F, A72F
modifications: PEPTIDE (1)...(131) wild-type rat intestinal fatty acid binding protein
B7: 68T, 72A (protein, listed as Rattus norvegicus)
chain: B1 chain with T62F, F68T
modifications: PEPTIDE (1)...(131) wild-type rat intestinal fatty acid binding protein
B8: 68M, 72A (protein, listed as Rattus norvegicus)
chain: B1 chain with T62F, F68M
modifications: PEPTIDE (1)...(131) wild-type rat intestinal fatty acid binding protein
B9: 72K (protein, listed as Rattus norvegicus)
chain: B1 chain with T62F, A72K
modifications: PEPTIDE (1)...(131) wild-type rat intestinal fatty acid binding protein
B10: 72Q (protein, listed as Rattus norvegicus)
chain: B1 chain with T62F, A72Q
modifications: PEPTIDE (1)...(131) wild-type rat intestinal fatty acid binding protein
B11: 68D, 72A (protein, listed as Rattus norvegicus)
chain: B1 chain with T62F, F68D
modifications: PEPTIDE (1)...(131) wild-type rat intestinal fatty acid binding protein
B12: 72R (protein, listed as Rattus norvegicus)
chain: B1 chain with T62F, A72R
modifications: PEPTIDE (1)...(131) wild-type rat intestinal fatty acid binding protein
B13: 72G (protein, listed as Rattus norvegicus)
chain: B1 chain with T62F, A72G
modifications: PEPTIDE (1)...(131) wild-type rat intestinal fatty acid binding protein
B14: 68Y, 72A (protein, listed as Rattus norvegicus)
chain: B1 chain with T62F, F68Y
modifications: PEPTIDE (1)...(131) wild-type rat intestinal fatty acid binding protein
B15: 68V, 72A (protein, listed as Rattus norvegicus)
chain: B1 chain with T62F, F68V
modifications: PEPTIDE (1)...(131) wild-type rat intestinal fatty acid binding protein
B16: 68N, 72A (protein, listed as Rattus norvegicus)
chain: B1 chain with T62F, F68N
modifications: PEPTIDE (1)...(131) wild-type rat intestinal fatty acid binding protein
B17: 68I, 72A (protein, listed as Rattus norvegicus)
chain: B1 chain with T62F, F68I
modifications: PEPTIDE (1)...(131) wild-type rat intestinal fatty acid binding protein
B18: 68S, 72A (protein, listed as Rattus norvegicus)
chain: B1 chain with T62F, F68S
modifications: PEPTIDE (1)...(131) wild-type rat intestinal fatty acid binding protein
B19: 72V (protein, listed as Rattus norvegicus)
chain: B1 chain with T62F, A72V
modifications: PEPTIDE (1)...(131) wild-type rat intestinal fatty acid binding protein
B20: 68L, 72A (protein, listed as Rattus norvegicus)
chain: B1 chain with T62F, F68L
modifications: PEPTIDE (1)...(131) wild-type rat intestinal fatty acid binding protein
B21: 72N (protein, listed as Rattus norvegicus)
chain: B1 chain with T62F, A72N
modifications: PEPTIDE (1)...(131) wild-type rat intestinal fatty acid binding protein
B22: 68Q, 72A (protein, listed as Rattus norvegicus)
chain: B1 chain with T62F, F68Q
modifications: PEPTIDE (1)...(131) wild-type rat intestinal fatty acid binding protein
B23: 72M (protein, listed as Rattus norvegicus)
chain: B1 chain with T62F, A72M
modifications: PEPTIDE (1)...(131) wild-type rat intestinal fatty acid binding protein
B24: 68E, 72A (protein, listed as Rattus norvegicus)
chain: B1 chain with T62F, F68E
modifications: PEPTIDE (1)...(131) wild-type rat intestinal fatty acid binding protein
B25: 72D (protein, listed as Rattus norvegicus)
chain: B1 chain with T62F, A72D
modifications: PEPTIDE (1)...(131) wild-type rat intestinal fatty acid binding protein
B26: 68G, 72A (protein, listed as Rattus norvegicus)
chain: B1 chain with T62F, F68G
modifications: PEPTIDE (1)...(131) wild-type rat intestinal fatty acid binding protein
B27: 72C (protein, listed as Rattus norvegicus)
chain: B1 chain with T62F, A72C
modifications: PEPTIDE (1)...(131) wild-type rat intestinal fatty acid binding protein
B28: 70M, 72A (protein, listed as Rattus norvegicus)
chain: B1 chain with T62F, Y70M
modifications: PEPTIDE (1)...(131) wild-type rat intestinal fatty acid binding protein
B29: 72E (protein, listed as Rattus norvegicus)
chain: B1 chain with T62F, A72E
modifications: PEPTIDE (1)...(131) wild-type rat intestinal fatty acid binding protein
B30: 70C, 72A (protein, listed as Rattus norvegicus)
chain: B1 chain with T62F, Y70C
modifications: PEPTIDE (1)...(131) wild-type rat intestinal fatty acid binding protein
B31: 104D1, 72A (protein, listed as Rattus norvegicus)
chain: B1 chain with T62F, A104D
modifications: PEPTIDE (1)...(131) wild-type rat intestinal fatty acid binding protein
B32: 104F1, 72A (protein, listed as Rattus norvegicus)
chain: B1 chain with T62F, A104F
modifications: PEPTIDE (1)...(131) wild-type rat intestinal fatty acid binding protein
B33: 102Y, 72A (protein, listed as Rattus norvegicus)
chain: B1 chain with T62F, L102Y
modifications: PEPTIDE (1)...(131) wild-type rat intestinal fatty acid binding protein

Among the data in patent publication US20060257938A1, “Method of screening for drugs that block ligand binding to a lipid binding protein” (priority 2005, published 2006) are AvgOfRo and Ro values, retold here.

Substitutions are numbered along the chain they refer to.

The nature of one data set: Baseline fluorescence ratio Ro of probe in absence of analyte. As to conditions: average baseline fluorescence ratio Ro of the clone probe; substitutions with respect to SEQ ID NO: 2.
With B1, the AvgOfRo amounted to 0.24.
On the same count and under the same terms, the result for B2 reads 0.58; that for B3, 0.39; that for B4, 0.21.
The same measure, in the same setting: under B5 stands 0.23; under B6, 0.52.
On the same count and under the same terms, under B7 stands 0.18; under B8, 0.19; under B9, 0.40.
As for B10, the AvgOfRo turned out to be 0.66.
The same measure, in the same setting: the result for B11 reads 0.38; that for B12, 0.69; that for B13, 0.28.
Regarding B14, the AvgOfRo amounted to 0.17.
With B15, the AvgOfRo stood at 0.20.
The same measure, in the same setting: the result for B16 reads 0.33; that for B17, 0.22; that for B18, 0.21.
The same measure, in the same setting: under B19 stands 0.09; under B20, 0.21; under B21, 0.31.
B22: the AvgOfRo is given as 0.30.
Take B23: the AvgOfRo is 0.38.
On the same count and under the same terms, under B24 stands 0.36.
Same read-out and setting: the result for B25 reads 0.47.
The same measure, in the same setting: under B26 stands 0.23; under B27, 0.30; under B28, 0.27.
With B29, the AvgOfRo is 0.57.
Same read-out and setting: under B30 stands 0.43.

Still in this data set, the particulars now being: baseline fluorescence ratio of probe.
Take B3: the Ro is recorded as 0.386.
On the same count and under the same terms, the result for B6 reads 0.520; that for B13, 0.307; that for B20, 0.207.

Staying with this data set, now noted: baseline fluorescence ratio of probe, no fatty acid.
Regarding B10, the Ro was determined as 0.665.
Turning to B31, the AvgOfRo stood at 0.65.
B32: the AvgOfRo is given as 0.35.
For the molecule B33, the AvgOfRo worked out at 0.72 and the Ro turned out to be 0.719.
In the case of B21, the Ro was 0.310.
